Source: PubChem BioAssay AID504375 (National Center for Advancing Translational Sciences (NCATS), 2011)
Out of some 1,600 compounds screened, about 25 (2%) were called active. About 7% were inconclusive and are not listed. The call rests on the fitted dose curve; in most records, active means well fitted inhibition curve with a large enough effect; inconclusive means small, poorly fitted or top-dose-only effect, or effect the other way; inactive means no such curve, though single readings can be large or run the other way. Some of the results follow.

Amino acid sequences for entries named in this document (tags omitted).
UniProt Q01196, whole entry, looked up: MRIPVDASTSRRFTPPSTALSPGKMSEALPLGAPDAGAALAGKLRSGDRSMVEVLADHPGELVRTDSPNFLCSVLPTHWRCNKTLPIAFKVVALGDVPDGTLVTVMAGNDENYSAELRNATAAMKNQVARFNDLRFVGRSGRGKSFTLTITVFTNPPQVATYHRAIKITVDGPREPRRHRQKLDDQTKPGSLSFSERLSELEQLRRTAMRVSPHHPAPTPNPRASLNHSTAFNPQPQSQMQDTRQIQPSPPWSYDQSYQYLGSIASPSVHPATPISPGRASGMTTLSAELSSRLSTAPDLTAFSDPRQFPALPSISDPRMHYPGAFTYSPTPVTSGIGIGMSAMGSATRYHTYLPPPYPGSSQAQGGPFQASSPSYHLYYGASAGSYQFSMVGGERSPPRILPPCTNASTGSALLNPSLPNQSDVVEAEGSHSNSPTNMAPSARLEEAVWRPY
UniProt Q13951, whole entry, looked up: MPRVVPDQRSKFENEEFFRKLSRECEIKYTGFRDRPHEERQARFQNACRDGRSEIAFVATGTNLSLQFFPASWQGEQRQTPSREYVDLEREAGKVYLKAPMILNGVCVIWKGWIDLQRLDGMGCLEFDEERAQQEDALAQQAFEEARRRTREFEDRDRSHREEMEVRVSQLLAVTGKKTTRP

molecular target: Runt-related transcription factor 1 (Homo sapiens) + Core-binding factor subunit beta (Homo sapiens) (UniProt Q01196+Q13951); test: qHTS Assay for Compounds Blocking the Interaction Between CBF-beta and RUNX1 for the Treatment of Acute Myeloid Leukemia: Hit Validation with Orthogonal Assay; conditions: CBFbeta-RUNX1 binding orthogonal assay, biochemical; series mostly up to 41 µM; activity change, negative = inhibition: at the top concentration
Source text: NIH Chemical Genomics Center [NCGC]
NIH Molecular Libraries Probe Production centers Network [MLPCN]
Assay Submitter (PI): Paul Liu
Core Binding Factor (CBF) abnormalities are associated with 20-25% of all acute myeloid leukemias (AML), of which 5-10% are further sub classified as acute myelomonocytic leukemia with eosinophilia, also known as M4Eo in the FAB classification scheme. This subtype of leukemia is usually associated with chromosome 16 inversion (p13:q22). Chromosome 16 inversion results in formation of the fusion oncogene CBFB-MYH11, which encodes the fusion protein CBF-beta-SMMHC.
It has been hypothesized that the interference of CBF-beta and RUNX1 binding could have therapeutic implications for patients with CBF mediated leukemias. We developed a CBF-beta and RUNX1 binding assay in AlphaScreenTM format and optimized it for high throughput screening to search for inhibitors. The goal of this project is to screen MLPCN's compound collection (MLSMR) for identifying the inhibitors of the interaction between CBF-beta and RUNX1 proteins as research probes. If these probes work well in the animal models, the ultimate goal of this project is to development a new drug treatment for this disease.
This assay can not be used to assess how apparent inhibitors interfere with protein binding, and whether inhibitors specifically bind to either protein. Disruption of this protein-protein interaction, through any mechanism, is the intended target activity.
The present data set was run to confirm the activity of hits from the primary screen using an orthogonal assay technology for measuring protein-protein interaction disruption.
A TR-FRET (time resolved fluorescence resonance energy transfer) assay was performed using the same assay buffer, protein concentrations and incubation times as described previously in the AlphaScreen assay, except that terbium (Tb+) labeled anti-his-antibody and XL665 linked streptavidin were used to capture the binding signal. The Tb+ labeled anti-his-antibody captures His(6)-CBF and XL665 linked streptavidin binds to biotin-RUNX1. The binding of RUNX1 to CBFbrings Tb+ and XL665 to proximity resulting in a TR-FRET signal. Briefly, in a white 384-well plate, 10 µl/well of mixture of biotin-RUNX1 and His(6)-CBFwere incubated with 10 µl/well buffer (positive control) or 10 µl/well compounds (negative control) for 20 min followed by an addition of 10 µl/well of Tb+ labeled anti-his(6)-antibody and XL665 linked streptavidin. After 90 min of incubation in the dark, the assay plate was measured in the Envision plate reader using TR-FRET detection mode. For the 1536-well plate format, 3 µl/well mixture of biotin-RUNX1 and His(6)-CBF (30 nM per protein) was incubated with 23 nl/well compound (dissolved in 100% DMSO) or the equivalent DMSO concentration (positive control) for 30 min followed by the addition of 1 µl/well of 0.44 ng Tb+ labeled anti-his(6)-antibody and 5 nM streptavodin-XL665. After 90 min of incubation, the assay plate was measured in the Envision plate reader.
The TR-FRET assay for detecting interaction between HIV-I Tat and […] was similarly performed with the recombinant full-length HIV-I Tat CLADE B and HIV-I Tat Biotin conjugated proteins supplied by Diatheva (Fano, Italy). Briefly, the His-CBF and Biotin-RUNX1 complex at a working concentration of 83.3 nM per protein were pre-incubated in assay buffer for 10 minutes on ice. Then HIV-I Tat or unlabeled CBF were added to reach final concentrations (Supplementary Figure 4b) and incubated for 5 minutes. Finally anti-His antibody and streptavidin-XL665 at a final concentration of 2.2 ng and 5 nM, respectively, were added to the plate, which was incubated for 1 hr prior to reading on the PerkinElmer Envision plate reader.
Keywords: MLSMR, MLPCN, NIH Roadmap, qHTS, NCGC, Core binding factor, CBF, CBF-beta, Acute myeloid leukemia
On the % scale 0 is the no-effect control and ±100 the full control effect; potency means the concentration at half of the fitted maximal effect.

Row | Compound | activity change, negative = inhibition | Potency
1 | O=c1c2ccccc2c(-c2ccccc2)nn1-c1ccccc1 | inactive: -4.88% | 
2 | O=C(CN1CCCC1)Nc1c(C(=O)C2CC2)oc2ccccc12 | inactive: 4.04% | 
3 | CCc1c(C)nc2c(-c3ccccc3)c(C)nn2c1Nc1ccc(NC(C)=O)cc1 | inactive: 12% | 
4 | COc1ccc(-n2c(=S)[nH]c3[nH]ncc3c2=O)cc1 | inactive: 9.68% | 
5 | CC1=NN(c2nc3ccccc3s2)C(O)(C(F)(F)F)C1 (stereo not given) | inactive: 8.33% | 
6 | Cc1cc(C(=O)N/N=C/c2c(C)nn(-c3ccccc3)c2C)n[nH]1 | inactive: -1.38% | 
7 | N#Cc1ccc(S(=O)(=O)N2CCCN(c3ccc(C(F)(F)F)cn3)CC2)cc1 | inactive: -4.62% | 
8 | CCOc1cccc2cc(C(N)=O)c(=N)oc12 | inactive: 28.4% | 
9 | O=C(CSc1n[nH]c(=O)[nH]c1=O)NCC1CCCCC1 | inactive: -0.514% | 
10 | O=S(=O)(c1cccc(F)c1)N1CCCN(c2ccc(C(F)(F)F)cn2)CC1 | inactive: -7.51% | 
11 | Cc1nc(N2CCOCC2)nc(Oc2ccccc2F)c1[N+](=O)[O-] | inactive: -2.96% | 
12 | O=c1[nH]nc(N2CCOCC2)c(=O)[nH]1 | inactive: 9.08% | 
13 | CCN(CC)C(=O)CSc1nnc2nnc3cc(OC)ccc3n12 | inactive: 85.2% | 
14 | CCc1cccc(C)c1NC(=O)N(C)C1CCCCC1 | inactive: -7.29% | 
15 | Cc1cccc(C(=O)N/C(=C\c2ccc(C)o2)C(=O)O)c1 | inactive: 5.51% | 
16 | O=C(Nc1ccc(Cl)cc1)Nc1ccc(C(=O)N2CCOCC2)cc1 | inactive: 3.72% | 
17 | Cc1nn(Cc2ccccc2)c(C)c1/C=N/NC(=O)c1ccncc1 | inactive: 2.97% | 
18 | COc1ccccc1/C=C/C=N/n1c(-c2ccccn2)n[nH]c1=S | inactive: 11.2% | 
19 | O=S(=O)(Nc1nc(SCc2ccc(Cl)cc2)n[nH]1)c1ccccc1 | inactive: -14.4% | 
20 | CC(=O)Nc1cccc(S(N)(=O)=O)c1C | inactive: 1.17% | 
21 | CN1C(=O)C(CC(=O)NCCc2ccccc2)N(NC(=O)c2ccc(Cl)cc2)C1=S (stereo not given) | inactive: -11.6% | 
22 | CCOC(=O)c1cnn(-c2ccc(NS(=O)(=O)c3ccc(Cl)cc3)cc2)c1C(F)(F)F | inactive: 0.0612% | 
23 | CCN(CC)c1ccc(/C=N/N2CCN(Cc3ccc(Cl)cc3)CC2)c(O)c1 | inactive: 4.25% | 
24 | Fc1ccc([C@H]2CCNCC2COc2ccc3c(c2)OCO3)cc1 (stereo not given in full) | inactive: -5.24% [at 82.4 µM] | 
25 | Cc1nc(C)c(-c2ccnc(/N=C/NO)n2)s1 | inactive: 3.72% | 

Row | Compound | activity change, negative = inhibition | Potency
26 | Cn1cnc(S(=O)(=O)Nc2ccc(OC(F)F)cc2)c1 | inactive: 8.49% | 
27 | Cc1oc(S(=O)(=O)N2CCCC2)cc1C(=O)Nc1ccccc1 | inactive: -1.84% | 
28 | Cc1ccc(-c2nn[nH]n2)cc1Cl | inactive: 4.17% | 
29 | CCO/C=C1\SC(=S)N(c2ccc(Cl)cc2)C1=O | inactive: 0.783% | 
30 | CC(C)(C)OC(=O)N1Cc2cc3ccccc3nc2C1CO (stereo not given) | inactive: 9.96% | 
31 | CN(C)c1ccc(N2C(=O)CC(c3ccccc3)CC2=O)cc1 | inactive: 17.5% | 
32 | Cc1cc(C)n2nc(N)c(N=Nc3ccccc3)c2n1 | inactive: 16.4% | 
33 | CCCc1c(C(=O)O)cnn1-c1ccc(Cl)cc1 | inactive: 3.28% | 
34 | Cc1nn(-c2ccccc2)c(NC(=O)c2cccs2)c(-c2ccccc2Cl)c1=O | inactive: 8.62% | 
35 | CC(=O)Oc1cc2c3c(c1)/C(=C1/SC(=S)NC1=O)C(=O)N3C(C)(C)C=C2C | inactive: 14.8% | 
36 | CC(C)NNC(=O)c1ccncc1 | inactive: 28.1% | 
37 | Cc1nc(Nc2ccc(F)cc2)nc(Nc2ccc(F)cc2)c1[N+](=O)[O-] | inactive: -11.5% | 
38 | COc1ccc(CCNC(=S)NCCc2ccc(OC)c(OC)c2)cc1OC | inactive: -0.967% | 
39 | C=CCn1c(SCc2ccc(F)cc2)nnc1-c1sc2nc(C)cc(C)c2c1N | inactive: 6.09% | 
40 | CCOC(=O)c1cn[nH]c1NC(=S)Nc1ccc(Cl)cc1 | inactive: 13.8% | 
41 | COc1ccc2c(C)cc(C)nc2n1 | inactive: 11.8% | 
42 | Cc1nn2c(N3CCN(CCO)CC3)c3c(nc2c1-c1ccccc1)CCCC3 | inactive: 7.13% | 
43 | COc1ccc2[nH]c(=O)c(CN(C(=O)c3cccnc3)c3ccc(C)cc3C)cc2c1 | inactive: -5.17% | 
44 | Cc1cccc(NC(=S)N(CCN(C)C)C(C)c2ccccn2)c1 (stereo not given) | inactive: 3.34% [at 22.1 µM] | 
45 | CC(C)(C)c1cc(C(=O)NN)n(Cc2ccc(Cl)cc2Cl)n1 | inactive: 1.84% | 
46 | Cn1nc2sc3ccccc3n2c(=O)c1=O | inactive: -8.73% | 
47 | Cc1ccnn1CC(=O)N/N=C/c1c[nH]c2ccccc12 | inactive: 21.8% | 
48 | COc1ccccc1C(=O)N1CCC(N2CCN(c3ccccc3)CC2)CC1 | inactive: -6.19% | 
49 | C=CCNC(=S)NCC | inactive: -15.6% | 
50 | COc1cccc2c1NC(C(=O)O)C1CC=CC21 (stereo not given) |  | active: 7.94 µM

Entries 41 through 42, reprinted for reference:
Row | Compound | activity change, negative = inhibition | Potency
41 | COc1ccc2c(C)cc(C)nc2n1 | inactive: 11.8% | 
42 | Cc1nn2c(N3CCN(CCO)CC3)c3c(nc2c1-c1ccccc1)CCCC3 | inactive: 7.13% | 

Additional compounds.

Row | Compound | activity change, negative = inhibition | Potency
51 | O=C(c1ccccc1)c1ccc(Sc2ccc([N+](=O)[O-])cc2)cc1 | inactive: -2.88% | 
52 | CCCCNC(=O)Nc1nnc(C(C)(C)C)s1 | inactive: -12% | 
53 | C[C@H](N)C(=O)OCc1ccc([N+](=O)[O-])cc1 | inactive: 12.9% | 
54 | COc1ccc(C2Sc3ccccc3N(CCN(C)C)C(=O)C2OC(C)=O)cc1 (stereo not given) | inactive: -5.56% | 
55 | Cc1ccc(-n2c(-c3ccc(Cl)cc3)c[n+]3c2CCC3)cc1 | inactive: 6.19% | 
56 | O=C(O)/C=C/C(=O)Nc1ccc(Cl)cc1C(=O)c1ccccc1 | inactive: 5.96% | 
57 | COc1ccc(NC(=O)Oc2cc(C)ccc2C(C)C)cc1 | inactive: 0.526% | 
58 | CC1(C)CC(=O)c2cnc(N3CCc4ccccc43)nc2C1 | inactive: -1.31% | 
59 | Cc1cc(C)nc(S/C=C/C(=O)c2ccccc2)n1 | inactive: -1.69% | 
60 | O=C(c1ccc(Cl)cc1Cl)N1CCSCC1 | inactive: 17.6% | 
61 | N[C@H](Cc1ccc(O)c(O)c1)C(=O)O |  | active: 7.08 µM
62 | Cc1onc(-c2c(F)cccc2Cl)c1C(=O)c1ccc(F)cc1 | inactive: 13.7% | 
63 | CCOC(=O)c1cn2nc(Oc3ccc(NC(C)=O)cc3)ccc2n1 | inactive: 4.2% | 
64 | CC(C)(C)OC(=O)NCCCCCC(=O)N/N=C/c1coc2ccccc2c1=O | inactive: 11.4% | 
65 | S=c1[nH]nc([C@@H]2C[C@H]2c2ccccc2)n1-c1ccccc1Cl | inactive: -7.38% | 
66 | Cc1cc(-n2cnc(-c3cn[nH]c3C)n2)no1 | inactive: 3.36% | 
67 | CC(=O)Nc1ccc(CC#N)cc1 | inactive: 10.7% | 
68 | CC1=C(C)Cc2c(OC(=O)c3ccccc3)ccc(OC(=O)c3ccccc3)c2C1 | inactive: 4.4% | 
69 | Cn1nc(-c2ccccc2)cc1NC(=O)CCCC(=O)O | inactive: -1.31% | 
70 | COc1ccc([N+](=O)[O-])c(S(=O)(=O)c2ccc(Cl)cc2)n1 | inactive: 32.4% | 
71 | O=C(O)c1ccccc1N/N=C/c1cc(Br)cc(Br)c1O | inactive: -2.4% | 
72 | CC1CC(=O)Nc2ccccc2N1S(=O)(=O)c1ccc(Cl)cc1 (stereo not given) | inactive: -2.07% | 
73 | CCOc1ccc(NC(=O)Nc2cc(C(C)C)c(O)cc2C)cc1 | inactive: -4.8% | 
74 | CC(C)(C)c1ccc(Oc2ccc(NC(=O)c3cccs3)cn2)cc1 | inactive: -4.4% | 
75 | CCNC(=O)COC(=O)c1cc(S(=O)(=O)N2CCCCC2)ccc1C | inactive: -1.11% | 
